Values from PubChem BioAssay AID1259424 (University of Nebraska Medical Center, 2018).
The whole screen tested about 14,000 reagents; below is an unselected part. 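Higher correlation or smaller distance means closer resemblance to KSR1 loss; control wells, including KSR1 knockdowns, recur on many plates.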 Further read-outs or replicates are left out here. No sequences are given here. Not given: the time to read-out.

Test: 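Find knockdowns that reproduce the expression shifts seen after KSR1 loss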 (primary screen)
Cell system: human HCT116 colon cancer cells
Reagents: siRNA pool against human genes, 50 nM
Read-out: 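Six signature mRNAs by branched-DNA multiplex assay, scaled to two housekeeping genes and non-targeting median, log2; matched to mean KSR1 knockdown profile by Pearson correlation and euclidean distance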
Direction: mean correlation with KSR1 profile: higher = expression change more like KSR1 knockdown

Knock-down of ALDH5A1 came out at: mean correlation with KSR1 profile -0.241.
For ST3GAL3 the deposit lists mean correlation with KSR1 profile 0.336.
For DEPDC5, the values are mean correlation with KSR1 profile 0.035.
RHBDL1 scored mean correlation with KSR1 profile -0.695.
Knock-down of DNAAF2 resulted in: mean correlation with KSR1 profile -0.616.
Knock-down of PRM3 came out at: mean correlation with KSR1 profile 0.385.
For PMPCB the deposit lists mean correlation with KSR1 profile -0.439.
Knock-down of CFAP44 resulted in: mean correlation with KSR1 profile -0.471.
ZNF394 scored mean correlation with KSR1 profile 0.805.
For PTPN22, the values are mean correlation with KSR1 profile -0.0559.
Depletion of TRIM17 gave: mean correlation with KSR1 profile -0.653.
Silencing of CNDP2 resulted in: mean correlation with KSR1 profile -0.498.
